{"source": "PubChem BioAssay AID1159584, Peter MacCallum Cancer Centre – 2016", "test": "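Knock-downs that harm CDH1-null cells more than parental MCF10A cells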 (primary screen)", "cell system": "human MCF10A breast epithelial cells, parental and CDH1-null", "knock-down reagent": "siRNA against human genes", "measurement": "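ATP luminescence (CellTiter-Glo) viability per line relative to mean mock wells over all plates, and the ratio of CDH1-null to parental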", "reading the numbers": "CDH1-null / parental viability ratio: higher = CDH1-null cells survive relatively better than parental; CDH1-null viability vs mock: higher = more viable CDH1-null cells", "units": "CDH1-null viability vs mock in fraction of mock", "note": "In all, the deposit lists about 18,000 reagents; this is an unselected part. Not all columns of the deposit are shown. No sequences are given here. Not stated in the record: the amount of reagent, the time to read-out."}
The opening 2 entries as a preview:
{"target": "OBI1", "PubChem SID": "SID152154670", "CDH1-null / parental viability ratio": 0.93, "CDH1-null viability vs mock": 0.56}
{"target": "ACO1", "PubChem SID": "SID134314687", "CDH1-null / parental viability ratio": 0.89, "CDH1-null viability vs mock": 0.62}

Results, from the start:
{"target": "OBI1", "PubChem SID": "SID152154670", "CDH1-null / parental viability ratio": 0.93, "CDH1-null viability vs mock": 0.56}
{"target": "ACO1", "PubChem SID": "SID134314687", "CDH1-null / parental viability ratio": 0.89, "CDH1-null viability vs mock": 0.62}
{"target": "VIL1", "PubChem SID": "SID135622310", "CDH1-null / parental viability ratio": 0.8, "CDH1-null viability vs mock": 0.59}
{"target": "FAM32A", "PubChem SID": "SID152153283", "CDH1-null / parental viability ratio": 0.79, "CDH1-null viability vs mock": 0.66}
{"target": "TIGD4", "PubChem SID": "SID134321377", "CDH1-null / parental viability ratio": 1.06, "CDH1-null viability vs mock": 0.99}
{"target": "MED15", "PubChem SID": "SID135623258", "CDH1-null / parental viability ratio": 0.94, "CDH1-null viability vs mock": 0.72}
{"target": "NKX2-8", "PubChem SID": "SID134313124", "CDH1-null / parental viability ratio": 0.85, "CDH1-null viability vs mock": 0.61}
{"target": "ITLN1", "PubChem SID": "SID134313872", "CDH1-null / parental viability ratio": 1.1, "CDH1-null viability vs mock": 0.96}
{"target": "ABHD12", "PubChem SID": "SID152149534", "CDH1-null / parental viability ratio": 1.1, "CDH1-null viability vs mock": 0.97}
{"target": "IRF2", "PubChem SID": "SID135622181", "CDH1-null / parental viability ratio": 1, "CDH1-null viability vs mock": 0.86}
{"target": "ACMSD", "PubChem SID": "SID152149254", "CDH1-null / parental viability ratio": 1.21, "CDH1-null viability vs mock": 0.92}
{"target": "SMURF1", "PubChem SID": "SID135621339", "CDH1-null / parental viability ratio": 1.18, "CDH1-null viability vs mock": 0.93}
{"target": "ESRP2", "PubChem SID": "SID152152837", "CDH1-null / parental viability ratio": 1.07, "CDH1-null viability vs mock": 0.86}
{"target": "CXCL9", "PubChem SID": "SID152152544", "CDH1-null / parental viability ratio": 1.29, "CDH1-null viability vs mock": 0.49}
